Laboratory results: PubChem BioAssay AID1259307 (Sanger Institute, 2017)

Purpose: 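Screen of kinase gene silencing for colorectal cancer cell killing and drug cooperation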 (primary screen)
Cells: SW620 colorectal cancer cells
Reagents: siRNA pool against human genes
Treatment: anchor drugs BYL719 at 1 µM, cetuximab at 5 µg/ml or trametinib at 10 nM, each beside a DMSO vehicle arm
Measurement: 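Per-well viability versus non-targeting control pool, replicate-averaged, robust z-score from controls; synergy scores for BYL719 1 µM, cetuximab 5 µg/ml, trametinib 10 nM against DMSO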
Reading the numbers: viability robust z-score, no drug and viability vs control, no drug: higher = more viable cells; synergy score with BYL719 and synergy score with cetuximab and synergy score with trametinib: higher = stronger synthetic lethality with the drug
Hit rule: 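Essential when the viability robust z-score without drug is under -3; synergy scores are ignored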
Calls: active = essential (lethal alone); inactive = no change alone
Shown is a random part of 794 reagents. Over the whole deposit, 15 (1.9%) are marked active. 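Calls reflect lethality without any drug; synergy scores did not enter the calls.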 Unmarked entries are inactive. No viability above 1 is reported: the scale is capped. No sequences are given here. Not stated in the record: the amount of reagent, the time to read-out.

gene | PubChem SID | viability robust z-score, no drug | viability vs control, no drug | synergy score with BYL719 | synergy score with cetuximab | synergy score with trametinib
TSSK6 | SID152147466 | 0.718 | 0.998 | -0.0542 | -0.00164 | 0.0216
MOK | SID56478889 | 0.102 | 0.942 | -0.114 | -0.0585 | -0.0434
CDC42BPB | SID152149037 | 0.408 | 0.97 | 0.0202 | -0.00244 | 0.11
KCNH2 | SID135621164 | -0.622 | 0.875 | -0.0139 | -0.0422 | -0.118
MAP2K6 | SID135620765 | 0.736 | 1 | 0.0386 | 0 | 0.0782
N4BP2 | SID152151934 | 0.306 | 0.96 | -0.0815 | -0.00052 | -0.00749
TWF1 | SID56478546 | 0.736 | 1 | -0.0919 | 0 | -0.0174
MAP3K13 | SID56478694 | 0.736 | 1 | -0.0325 | 0.0588 | 0.0212
PI4KB | SID135621252 | -1.45 | 0.798 | -0.213 | -0.202 | -0.158
TAOK2 | SID57288958 | 0.736 | 1 | -0.0491 | 0.0133 | 0.0885
BRAF | SID152153735 | -0.9 | 0.849 | 0.0574 | -0.00748 | -0.0137
FGFRL1 | SID135622448 | -0.176 | 0.916 | -0.1 | -0.0416 | -0.0909
GK2 | SID56479273 | -0.697 | 0.868 | -0.0768 | -0.114 | -0.115
MYLK | SID152147192 | -0.078 | 0.925 | -0.0311 | -0.0751 | 0.0609
AXIN2 | SID135621652 | 0.628 | 0.99 | -0.013 | -0.01 | 0
XYLB | SID152153831 | -0.214 | 0.912 | -0.054 | 0.00327 | -0.0266
CILK1 | SID152149076 | 0.736 | 1 | -0.0919 | 0 | -0.112
LRRK1 | SID135620970 | 0.736 | 1 | -0.0706 | 0 | -0.0564
TAF1L | SID152155360 | 0.331 | 0.963 | -0.126 | -0.0373 | -0.00928
JAK2 | SID56478524 | 0.736 | 1 | -0.0438 | 0.0123 | 0.025
GALK1 | SID56479189 | -1.55 | 0.789 | -0.145 | -0.136 | -0.142
MARK2 | SID152148068 | 0.141 | 0.945 | -0.0469 | 0.0247 | 0.00784
STRADA | SID152149670 | -0.406 | 0.895 | -0.132 | -0.105 | -0.12

Next part, starting with the last 3 of the part before.
gene | PubChem SID | viability robust z-score, no drug | viability vs control, no drug | synergy score with BYL719 | synergy score with cetuximab | synergy score with trametinib
GALK1 | SID56479189 | -1.55 | 0.789 | -0.145 | -0.136 | -0.142
MARK2 | SID152148068 | 0.141 | 0.945 | -0.0469 | 0.0247 | 0.00784
STRADA | SID152149670 | -0.406 | 0.895 | -0.132 | -0.105 | -0.12
SMC1A | SID134311995 | 0.736 | 1 | 0.0977 | 0 | 0.0939
TLK1 | SID56478782 | 0.736 | 1 | 0.0337 | 0 | 0.0323
CDC42BPA | SID152147424 | 0.736 | 1 | -0.0519 | 0.0841 | 0.0544
MAP4K5 | SID56478702 | -0.551 | 0.881 | -0.113 | -0.0506 | -0.0263
PRKCSH | SID56479239 | 0.736 | 1 | 0.0215 | 0 | -0.0479
TRIO | SID56478974 | -1.96 | 0.751 | -0.149 | -0.137 | -0.223
PKIA | SID56479258 | 0.684 | 0.995 | 0.025 | -0.0048 | -0.039
MAPK8 | SID135620691 | 0.736 | 1 | -0.0334 | 0.00388 | 0.128
NEK1 | SID152155530 | -0.8 | 0.858 | -0.0692 | -0.00635 | 0.0368
EPHA10 | SID135620971 | -0.197 | 0.914 | 0.00501 | 0.0507 | -0.0016
ERN2 | SID135620900 | 0.736 | 1 | -0.0879 | 0 | 0.0634
MAP3K9 | SID152152652 | -0.0728 | 0.925 | 0.0797 | 0.131 | 0.103
HIPK4 | SID135620890 | 0.736 | 1 | -0.0629 | 0 | -0.0149
HK2 | SID56479103 | -1.86 | 0.76 | -0.0292 | -0.0613 | 0.00656
DIS3 | SID134319450 | 0.736 | 1 | 0.0154 | 0 | 0.126
MYO3B | SID152152883 | 0.736 | 1 | 0.0517 | 0 | 0.00673
CLK3 | SID56478875 | 0.736 | 1 | -0.0119 | 0 | 0.0501
RIPK3 | SID152154350 | 0.736 | 1 | -0.068 | 0 | 0.0231
PRKCB | SID56478724 | 0.736 | 1 | 0.0255 | 0.0278 | 0.14
PNKP | SID56479144 | -0.0758 | 0.925 | -0.0155 | 0.0067 | 0.00631
KDR | SID56478526 | 0.736 | 1 | -0.0919 | 0.0501 | -0.0506
ZC3H11A | SID135624155 | -0.208 | 0.913 | -0.0214 | 0.047 | 0.117
TEK | SID152152932 | 0.736 | 1 | 0.0245 | 0 | -0.0478
WT1 | SID152147201 | 0.536 | 0.981 | -0.109 | 0.0136 | -0.0708
MAPK7 | SID56478666 | 0.736 | 1 | 0.0128 | 0 | 0.14
CDK6 | SID56478600 | 0.736 | 1 | 0.0626 | 0.0523 | 0.191
GRK1 | SID152156219 | -0.145 | 0.919 | -0.0436 | 0.017 | -0.0999
IP6K1 | SID135621239 | 0.125 | 0.944 | -0.111 | -0.0564 | -0.111
PDK2 | SID56478952 | 0.735 | 1 | 0.0807 | -0.000112 | 0.0737
CKMT2 | SID152154085 | 0.736 | 1 | 0.0713 | 0.125 | 0.0913
PANK3 | SID56479122 | 0.736 | 1 | -0.0657 | 0.0077 | -0.0291
FLT4 | SID152148537 | 0.736 | 1 | -0.00559 | 0 | -0.0514
WNK3 | SID152156066 | 0.736 | 1 | -0.0437 | 0.091 | -0.111
STK10 | SID56478780 | -0.289 | 0.905 | -0.0791 | -0.0946 | -0.00851
MPP2 | SID152153278 | 0.304 | 0.96 | 0.0993 | 0.157 | 0.112
NME7 | SID56479121 | 0.736 | 1 | -0.0647 | 0.0127 | -0.086
TAOK3 | SID152152167 | -0.156 | 0.918 | 0.257 | -0.0422 | -0.0871
LRRK2 | SID152152689 | 0.736 | 1 | -0.0159 | 0 | -0.0462
PIKFYVE | SID152154410 | -1.48 | 0.796 | 0.0273 | 0.00264 | -0.0664
CREBBP | SID152156768 | -0.0881 | 0.924 | -0.0892 | -0.0639 | -0.0156
